These are yes or no findings as the source states them, for the method shown. Some entries that bind do so weakly or less than the wild type. For part of these data: Sequences can lack the tags named with a protein.

The chains behind the UniProt entries cited, without tags or fusion partners. Where a name states a change or a piece, a line headed by the entry shows the natural chain unless it says otherwise.
UniProt P0A6S5: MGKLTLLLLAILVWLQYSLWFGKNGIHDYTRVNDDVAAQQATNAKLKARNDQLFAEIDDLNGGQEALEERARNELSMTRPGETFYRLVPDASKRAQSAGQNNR
UniProt P0AEN4: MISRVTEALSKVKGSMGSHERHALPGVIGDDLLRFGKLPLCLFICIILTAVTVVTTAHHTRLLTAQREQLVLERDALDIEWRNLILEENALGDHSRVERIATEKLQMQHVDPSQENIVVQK
UniProt P06136: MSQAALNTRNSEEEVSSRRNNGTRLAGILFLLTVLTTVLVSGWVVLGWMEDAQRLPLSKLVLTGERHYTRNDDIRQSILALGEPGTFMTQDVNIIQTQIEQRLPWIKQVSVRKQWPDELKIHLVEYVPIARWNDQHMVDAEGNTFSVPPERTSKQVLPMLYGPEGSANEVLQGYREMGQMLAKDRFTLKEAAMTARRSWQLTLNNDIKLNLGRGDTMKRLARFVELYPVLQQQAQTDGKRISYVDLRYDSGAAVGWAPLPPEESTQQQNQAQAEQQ

For assay [1], the target named is T1, HisFtsN130 (FtsN Met1–Arg130) (E. coli) (UniProt P29131).
T1 sequence: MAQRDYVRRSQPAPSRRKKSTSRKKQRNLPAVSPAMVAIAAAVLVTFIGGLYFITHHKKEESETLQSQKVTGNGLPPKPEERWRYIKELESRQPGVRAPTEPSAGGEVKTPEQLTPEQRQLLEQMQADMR
Put plainly: co-expression and co-purification; HisFtsN or HisFtsN130 co-expressed with PBP1b, co-purified, SDS-PAGE.

The target of assay [2] is T2, HisFtsN (full-length FtsN) (E. coli) (UniProt P29131).
T2 sequence: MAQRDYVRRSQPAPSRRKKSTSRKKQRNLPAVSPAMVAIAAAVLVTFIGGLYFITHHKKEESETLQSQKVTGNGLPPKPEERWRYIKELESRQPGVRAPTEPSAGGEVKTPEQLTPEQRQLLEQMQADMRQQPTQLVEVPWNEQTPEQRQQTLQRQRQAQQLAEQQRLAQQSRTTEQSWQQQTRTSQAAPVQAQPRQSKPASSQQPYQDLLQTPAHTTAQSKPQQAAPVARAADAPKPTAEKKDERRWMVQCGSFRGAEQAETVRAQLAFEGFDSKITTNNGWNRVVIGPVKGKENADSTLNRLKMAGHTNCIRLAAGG
The assay is described as above.

In the next assay the target is T3, PBP1a (E. coli) (UniProt P02918).
T3 sequence: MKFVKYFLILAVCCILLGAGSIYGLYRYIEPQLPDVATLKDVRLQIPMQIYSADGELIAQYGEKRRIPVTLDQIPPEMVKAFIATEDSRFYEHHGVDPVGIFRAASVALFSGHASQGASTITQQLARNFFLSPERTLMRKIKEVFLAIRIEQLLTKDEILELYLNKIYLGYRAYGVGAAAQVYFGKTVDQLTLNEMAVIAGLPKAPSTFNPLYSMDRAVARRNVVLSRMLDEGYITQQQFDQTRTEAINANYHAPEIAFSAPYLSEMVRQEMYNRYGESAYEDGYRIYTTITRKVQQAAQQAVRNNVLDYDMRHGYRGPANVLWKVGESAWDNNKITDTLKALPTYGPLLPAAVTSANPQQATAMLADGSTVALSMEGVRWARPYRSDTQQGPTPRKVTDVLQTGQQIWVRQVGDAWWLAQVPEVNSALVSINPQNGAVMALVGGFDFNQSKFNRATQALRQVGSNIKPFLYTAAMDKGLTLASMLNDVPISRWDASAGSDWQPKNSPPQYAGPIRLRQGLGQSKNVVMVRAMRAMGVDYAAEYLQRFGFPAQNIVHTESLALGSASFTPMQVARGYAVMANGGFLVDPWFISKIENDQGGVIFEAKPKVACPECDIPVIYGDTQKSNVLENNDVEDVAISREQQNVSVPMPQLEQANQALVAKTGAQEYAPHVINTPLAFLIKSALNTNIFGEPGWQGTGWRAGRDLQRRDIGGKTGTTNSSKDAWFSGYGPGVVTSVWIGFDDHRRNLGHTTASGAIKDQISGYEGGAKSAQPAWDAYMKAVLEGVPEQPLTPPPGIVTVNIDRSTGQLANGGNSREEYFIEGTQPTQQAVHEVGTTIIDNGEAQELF
Put plainly: fluorescence polarisation; fluorescence anisotropy; FITC-Lys69–Gln93 probe at 100 nM, serial dilutions of the proteins in their specific buffer, 384-well plates, 30 min at 25 °C; both purified.

The target of a further assay is FtsBLQ complex (E. coli) (UniProt P0A6S5+P0AEN4+P06136). Described as above.
Assay [3] has as its target T4, FtsW–PBP3 complex (E. coli) (UniProt P0ABG4+P0AD68).
T4 sequence 1: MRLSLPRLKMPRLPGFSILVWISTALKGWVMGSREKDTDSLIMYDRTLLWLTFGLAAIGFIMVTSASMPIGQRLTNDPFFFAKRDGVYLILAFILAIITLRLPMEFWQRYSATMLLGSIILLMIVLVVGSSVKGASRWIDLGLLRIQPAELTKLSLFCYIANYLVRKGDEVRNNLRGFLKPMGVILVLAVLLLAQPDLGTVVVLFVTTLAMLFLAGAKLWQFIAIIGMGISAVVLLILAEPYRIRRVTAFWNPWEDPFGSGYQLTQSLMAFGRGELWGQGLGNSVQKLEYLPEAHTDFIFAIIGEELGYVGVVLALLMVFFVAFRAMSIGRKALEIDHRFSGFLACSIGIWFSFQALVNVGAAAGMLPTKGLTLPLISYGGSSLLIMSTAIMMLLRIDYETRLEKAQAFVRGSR
T4 sequence 2: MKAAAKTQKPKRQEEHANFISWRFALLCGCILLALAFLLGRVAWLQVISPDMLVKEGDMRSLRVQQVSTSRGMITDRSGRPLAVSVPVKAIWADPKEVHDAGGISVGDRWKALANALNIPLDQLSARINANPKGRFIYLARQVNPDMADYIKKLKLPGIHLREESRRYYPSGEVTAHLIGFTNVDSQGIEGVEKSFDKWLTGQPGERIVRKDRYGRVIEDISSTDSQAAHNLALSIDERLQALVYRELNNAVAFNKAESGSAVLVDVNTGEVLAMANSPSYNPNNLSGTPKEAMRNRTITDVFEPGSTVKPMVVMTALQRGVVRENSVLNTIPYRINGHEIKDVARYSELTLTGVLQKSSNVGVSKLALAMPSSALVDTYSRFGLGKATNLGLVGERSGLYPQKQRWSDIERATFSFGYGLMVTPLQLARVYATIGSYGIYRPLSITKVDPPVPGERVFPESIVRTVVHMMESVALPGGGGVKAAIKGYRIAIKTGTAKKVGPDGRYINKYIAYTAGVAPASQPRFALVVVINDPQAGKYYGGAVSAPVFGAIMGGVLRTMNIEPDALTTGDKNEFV
The description is as above.

A further assay addresses T5, PBP3 (E. coli) (UniProt P0AD68).
T5 sequence: T4 sequence 2
The description is as above.

B1: PBP1b co-expressed with HisFtsN or HisFtsN130 (enzyme, UniProt P02919 1-844)
chain: MAGNDREPIGRKGKPTRPVKQKVSRRRYEDDDDYDDYDDYEDEEPMPRKGKGKGKGRKPRGKRGWLWLLLKLAIVFAVLIAIYGVYLDQKIRSRIDGKVWQLPAAVYGRMVNLEPDMTISKNEMVKLLEATQYRQVSKMTRPGEFTVQANSIEMIRRPFDFPDSKEGQVRARLTFDGDHLATIVNMENNRQFGFFRLDPRLITMISSPNGEQRLFVPRSGFPDLLVDTLLATEDRHFYEHDGISLYSIGRAVLANLTAGRTVQGASTLTQQLVKNLFLSSERSYWRKANEAYMALIMDARYSKDRILELYMNEVYLGQSGDNEIRGFPLASLYYFGRPVEELSLDQQALLVGMVKGASIYNPWRNPKLALERRNLVLRLLQQQQIIDQELYDMLSARPLGVQPRGGVISPQPAFMQLVRQELQAKLGDKVKDLSGVKIFTTFDSVAQDAAEKAAVEGIPALKKQRKLSDLETAIVVVDRFSGEVRAMVGGSEPQFAGYNRAMQARRSIGSLAKPATYLTALSQPKIYRLNTWIADAPIALRQPNGQVWSPQNDDRRYSESGRVMLVDALTRSMNVPTVNLGMALGLPAVTETWIKLGVPKDQLHPVPAMLLGALNLTPIEVAQAFQTIASGGNRAPLSALRSVIAEDGKVLYQSFPQAERAVPAQAAYLTLWTMQQVVQRGTGRQLGAKYPNLHLAGKTGTTNNNVDTWFAGIDGSTVTITWVGRDNNQPTKLYGASGAMSIYQRYLANQTPTPLNLVPPEDIADMGVDYDGNFVCSGGMRILPVWTSDPQSLCQQSEMQQQPSGNPFDQSSQPQQQPQQQPAQQEQKDSDGVAGWIKDMFGSN
As to B1, the binding entry in assay [1] and in assay [2] was “binds” in each case.
KVTGNGLPPKPEERWRYIKELESRQ (FITC fluorophore attached at the N terminus) [FITC-labeled peptide (FITC-Lys69–Gln93) of FtsN]: the binding entry (in the assay with PBP1a (E. coli); in the assay with FtsBLQ complex (E. coli); in assay [3]; in the assay with PBP3 (E. coli)) was “no binding” each time.

For the origin of these results see PMC7939390 (The Journal of Biological Chemistry, 2020).
